{"sequences": {"note": "Sequences of proteins named here, by UniProt entry; tags and fusion partners are left off.", "UniProt P49884, whole entry, looked up": "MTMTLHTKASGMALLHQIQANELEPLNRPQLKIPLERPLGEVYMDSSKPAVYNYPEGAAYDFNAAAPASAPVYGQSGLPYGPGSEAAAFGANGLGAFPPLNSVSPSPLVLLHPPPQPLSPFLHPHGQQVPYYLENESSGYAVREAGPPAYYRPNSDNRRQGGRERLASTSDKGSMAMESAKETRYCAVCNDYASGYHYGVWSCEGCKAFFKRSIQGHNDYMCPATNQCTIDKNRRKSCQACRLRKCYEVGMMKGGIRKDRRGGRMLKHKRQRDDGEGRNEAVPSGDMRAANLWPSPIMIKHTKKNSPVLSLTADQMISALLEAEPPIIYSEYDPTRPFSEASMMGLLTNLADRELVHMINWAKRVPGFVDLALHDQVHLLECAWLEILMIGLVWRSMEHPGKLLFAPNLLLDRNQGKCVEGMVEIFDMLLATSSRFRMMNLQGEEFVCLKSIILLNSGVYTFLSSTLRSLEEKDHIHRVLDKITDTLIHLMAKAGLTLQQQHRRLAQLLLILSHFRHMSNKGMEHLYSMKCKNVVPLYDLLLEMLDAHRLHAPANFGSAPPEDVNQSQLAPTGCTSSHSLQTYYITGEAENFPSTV", "UniProt P03372, whole entry, looked up": "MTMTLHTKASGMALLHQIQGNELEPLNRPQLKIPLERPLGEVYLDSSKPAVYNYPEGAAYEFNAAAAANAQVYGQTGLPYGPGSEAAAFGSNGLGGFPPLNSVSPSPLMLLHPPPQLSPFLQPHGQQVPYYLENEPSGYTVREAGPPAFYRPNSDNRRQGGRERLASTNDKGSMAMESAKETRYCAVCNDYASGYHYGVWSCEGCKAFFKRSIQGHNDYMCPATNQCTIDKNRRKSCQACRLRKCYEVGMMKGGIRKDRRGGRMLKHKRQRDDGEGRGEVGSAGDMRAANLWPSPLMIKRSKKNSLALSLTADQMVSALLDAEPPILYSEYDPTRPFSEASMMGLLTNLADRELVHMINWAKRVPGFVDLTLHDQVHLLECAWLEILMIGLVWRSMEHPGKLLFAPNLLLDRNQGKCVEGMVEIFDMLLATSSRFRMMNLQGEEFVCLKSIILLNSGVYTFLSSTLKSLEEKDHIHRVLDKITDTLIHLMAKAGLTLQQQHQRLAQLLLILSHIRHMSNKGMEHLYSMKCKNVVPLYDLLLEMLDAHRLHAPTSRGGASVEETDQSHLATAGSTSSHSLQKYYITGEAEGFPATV", "UniProt P04637, whole entry, looked up": "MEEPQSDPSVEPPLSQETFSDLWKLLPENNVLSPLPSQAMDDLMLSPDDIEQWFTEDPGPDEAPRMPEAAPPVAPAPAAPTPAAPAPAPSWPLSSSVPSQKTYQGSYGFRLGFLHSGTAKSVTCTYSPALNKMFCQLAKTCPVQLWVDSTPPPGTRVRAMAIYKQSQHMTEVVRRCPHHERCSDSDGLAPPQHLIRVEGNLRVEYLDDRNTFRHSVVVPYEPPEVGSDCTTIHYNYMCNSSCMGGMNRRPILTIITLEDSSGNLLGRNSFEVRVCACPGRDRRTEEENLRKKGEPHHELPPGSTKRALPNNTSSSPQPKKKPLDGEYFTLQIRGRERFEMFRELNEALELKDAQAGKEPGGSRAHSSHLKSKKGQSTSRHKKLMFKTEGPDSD", "UniProt P19785, whole entry, looked up": "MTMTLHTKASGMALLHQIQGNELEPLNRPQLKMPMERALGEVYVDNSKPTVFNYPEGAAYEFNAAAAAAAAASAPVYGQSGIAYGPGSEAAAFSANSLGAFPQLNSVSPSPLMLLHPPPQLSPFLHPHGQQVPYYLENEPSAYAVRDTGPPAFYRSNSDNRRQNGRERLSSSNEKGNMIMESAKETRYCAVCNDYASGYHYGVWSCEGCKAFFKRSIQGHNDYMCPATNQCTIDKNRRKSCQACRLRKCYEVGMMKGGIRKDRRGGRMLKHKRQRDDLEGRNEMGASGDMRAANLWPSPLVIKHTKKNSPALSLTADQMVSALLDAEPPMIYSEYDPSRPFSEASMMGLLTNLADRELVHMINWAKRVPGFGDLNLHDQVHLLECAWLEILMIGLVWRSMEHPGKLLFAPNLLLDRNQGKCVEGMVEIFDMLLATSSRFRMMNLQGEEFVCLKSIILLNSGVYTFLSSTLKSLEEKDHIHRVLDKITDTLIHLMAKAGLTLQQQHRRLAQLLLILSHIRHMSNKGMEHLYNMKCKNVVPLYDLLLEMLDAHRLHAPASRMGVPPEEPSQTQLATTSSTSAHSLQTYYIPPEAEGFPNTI"}, "source": "PubChem BioAssay (EPA / NIEHS)", "key": {"[1]": {"biological_target": "bovine Estrogen Receptor (ER), ESR1 (gene 407238) (UniProt P49884)", "test": "NVS_NR_bER: NovaScreen (NVS) Nuclear Receptor Binding Assay for bovine Estrogen Receptor (ER) (AID 2283345);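 further: actives lower the bound radioligand count which means they displace the ER ligand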", "summary_of_the_method": "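Cell-free radioligand binding with bovine uterine membrane extracts, read 18 hours after dosing by scintillation counting. Loss of signal versus DMSO baseline indicates displacement. Primary screen run in duplicate at 25 uM, actives followed in concentration series.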"}, "[2]": {"biological_target": "Estrogen receptor (Homo sapiens) (UniProt P03372)", "test": "NVS_NR_hER: NovaScreen (NVS) Nuclear Receptor Binding Assay for human Estrogen Receptor (ER) (AID 2283348)", "summary_of_the_method": "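Scintillation signal from bound radioligand was measured 18 hours after chemical addition to cell-free MCF7 protein extracts, with DMSO as baseline. Activity was scored as signal loss; compounds ran first at 25 uM in duplicate.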"}, "[3]": {"test": "TOX21_p53_BLA_p2_viability: Viability Assessment in the Tox21 HCT-116 p53 Agonism Beta-lactamase Assay, Phase 2 (AID 2283591);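 further: actives lower the ATP signal meaning cytotoxicity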", "summary_of_the_method": "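Cytotoxicity readout: CellTiter-Glo ATP luminescence, 30 min at room temperature, after the beta-lactamase read. Cells were HCT116 exposed 16 h at 37C to compounds pin-transferred at 217-fold dilution from DMSO stocks.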"}, "[4]": {"test": "TOX21_p53_BLA_p3_viability: Viability Assessment in the Tox21 HCT-116 p53 Agonism Beta-lactamase Assay, Phase 3 (AID 2283593);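 further: cells exposed to compound for 16 h before reading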", "summary_of_the_method": "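Cellular ATP was quantified by CellTiter-Glo luminescence, read after 30 min at room temperature. Beforehand, HCT116 cells (4000/well) received compound 5 h post-seeding, 217-fold diluted from DMSO, then incubated 16 h at 37C.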"}, "[5]": {"test": "TOX21_p53_BLA_p4_viability: Viability Assessment in the Tox21 HCT-116 p53 Agonism Beta-lactamase Assay, Phase 4 (AID 2283597);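 further: hits lower the luminescence signal meaning cytotoxicity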", "summary_of_the_method": "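Compound exposure of HCT116 cells lasts 16 h at 37C, 5% CO2, with DMSO stocks diluted 217-fold. Cellular ATP is then quantified by CellTiter-Glo luminescence after 30 min at room temperature.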"}, "[6]": {"biological_target": "Cellular tumor antigen p53 (Homo sapiens) (UniProt P04637)", "test": "TOX21_p53_BLA_p5_ratio: Tox21 HCT-116 p53 Agonism Beta-lactamase Assay, Ratio, Phase 5 (AID 2283599)", "summary_of_the_method": "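Beta-lactamase reporter ratio (blue 460 nm over green 530 nm, 405 nm excitation) after 2 h CCF4-AM loading, in HCT-116 cells exposed 16 h at 37 C to compounds pinned at 217-fold dilution. Increases relative to DMSO baseline scored.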"}, "[7]": {"biological_target": "Cellular tumor antigen p53 (Homo sapiens) (UniProt P04637)", "test": "TOX21_p53_BLA_p4_ratio: Tox21 HCT-116 p53 Agonism Beta-lactamase Assay, Ratio, Phase 4 (AID 2283601)", "summary_of_the_method": "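Signal is the blue/green (460nm/530nm) ratio of cleaved versus uncleaved CCF4-AM substrate, read after 2 h substrate loading. Cells were HCT116 carrying the p53-responsive beta-lactamase reporter, dosed 16 h at 37C, 5% CO2; CellTiter-Glo measured in parallel.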"}, "[8]": {"biological_target": "mouse Estrogen Receptor alpha (Era), Esr1 (gene 13982) (UniProt P19785)", "test": "NVS_NR_mERa: NovaScreen (NVS) Nuclear Receptor Binding Assay for mouse Estrogen Receptor alpha (Era) (AID 2283378)", "summary_of_the_method": "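Test chemicals competed against a specific radioligand for binding to cell-free mouse Era. Duplicate wells at 25 uM were read 18 hours later by filter-based radiodetection, with loss of signal against DMSO scored as activity.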"}, "[9]": {"biological_target": "Cellular tumor antigen p53 (Homo sapiens) (UniProt P04637)", "test": "TOX21_p53_BLA_p2_ratio: Tox21 HCT-116 p53 Agonism Beta-lactamase Assay, Ratio, Phase 2 (AID 2283592)", "summary_of_the_method": "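An inducible beta-lactamase reporter in HCT116 cells signals p53 pathway activation. After 16 h chemical exposure at 37C, cells load CCF4-AM substrate for 2 h at room temperature; activity is the cleaved/uncleaved emission ratio relative to DMSO.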"}, "[10]": {"biological_target": "Cellular tumor antigen p53 (Homo sapiens) (UniProt P04637)", "test": "TOX21_p53_BLA_p3_ratio: Tox21 HCT-116 p53 Agonism Beta-lactamase Assay, Ratio, Phase 3 (AID 2283596)", "summary_of_the_method": "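HCT116 p53-bla cells (4000/well) given compound in DMSO (217-fold dilution) after 5 h, incubated 16 h at 37C. CCF4-AM substrate 2 h at room temperature; 460/530 nm emission ratio, gain fitted against DMSO.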"}, "[11]": {"test": "TOX21_p53_BLA_p5_viability: Viability Assessment in the Tox21 HCT-116 p53 Agonism Beta-lactamase Assay, Phase 5 (AID 2283600)", "summary_of_the_method": "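Counter-readout for cytotoxicity: ATP-dependent luminescence from CellTiter-Glo, read in the beta-lactamase wells after 30 min at RT, following a 16 h compound exposure at 37C.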"}}, "note": "The shares of active, inactive and inconclusive entries below differ from those in the screen. For some assays here: Potencies beside an inconclusive call are fits to weak or partial responses and may not hold up. Active and inactive are the calls of the source. How the source made its calls: active means hit-call score of the fitted dose curve at least 0.9, where 1 is the maximum; inconclusive means response in the unintended direction; inactive means score below 0.9.", "data": [{"smiles": "COC(=O)CCCC(=O)O", "values": [{"measurement": "AC50", "setting": "[1]", "result": "inconclusive: 20 µM"}, {"measurement": "outcome", "setting": "[2]", "result": "inactive"}, {"measurement": "outcome", "setting": "[3]", "result": "inactive"}, {"measurement": "outcome", "setting": "[4]", "result": "inactive"}, {"measurement": "AC50", "setting": "[5]", "result": "inconclusive: 46.1 µM"}, {"measurement": "AC50", "setting": "[6]", "result": "inconclusive: 46.1 µM"}, {"measurement": "outcome", "setting": "[7]", "result": "inactive"}]}, {"smiles": "CCC(=O)C(=O)CC", "values": [{"measurement": "outcome", "setting": "[1]", "result": "inactive"}, {"measurement": "AC50", "setting": "[8]", "result": "inconclusive: 26 µM"}]}, {"smiles": "CCCCCCCCCCCl", "values": [{"measurement": "AC50", "setting": "[3]", "result": "inconclusive: 46.7 µM"}]}, {"smiles": "Clc1cccc(Cl)c1NC1=NCCN1", "values": [{"measurement": "AC50", "setting": "[3]", "result": "inconclusive: 23 µM"}]}, {"smiles": "O=S(=O)(O)c1cc(Cl)c(Cl)cc1Cl", "values": [{"measurement": "outcome", "setting": "[1]", "result": "inactive"}, {"measurement": "outcome", "setting": "[2]", "result": "inactive"}, {"measurement": "AC50", "setting": "[8]", "result": "inconclusive: 25 µM"}, {"measurement": "AC50", "setting": "[9]", "result": "inconclusive: 46.1 µM"}, {"measurement": "AC50", "setting": "[4]", "result": "inconclusive: 0.0993 µM"}, {"measurement": "AC50", "setting": "[10]", "result": "inconclusive: 46.1 µM"}, {"measurement": "outcome", "setting": "[5]", "result": "inactive"}, {"measurement": "AC50", "setting": "[11]", "result": "inconclusive: 46.1 µM"}, {"measurement": "AC50", "setting": "[7]", "result": "inconclusive: 78 µM"}]}]}
